# PubChem BioAssay AID651640 (Broad Institute, 2012)
# Screen size: about 350,000 compounds; about 6,000 (1.7%) were called active. The inconclusive results got no clear call from the source; some entries with a clear call stand among them for comparison. No stated cut-off is given here; in the data, active means CPE inhibition above about 20% (passing the limit was not always enough); inconclusive means no clear call, values can overlap the other calls; tested in BHK-21 cells.
# Experiment: protection of cells from dengue 2 killing – plate reader, single concentration, primary screen (AID 651640);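 further: 0% = median of neutral control wells and 100% = median of positive control wells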
# Conditions: DENV2-infected cells, cytopathic effect rescue, at 9.99 µM, hits give high values
row,SMILES,CPE inhibition
1,CCN(CC(=O)Nc1ccccc1OC)C(=O)C1CCCC1,inconclusive: 20.6%
2,C[C@@H]1CN([C@@H](C)CO)C(=O)c2cc(-c3ccccc3F)cnc2O[C@@H]1CN(C)Cc1ccc(F)cc1,inconclusive: 22.4%
3,O=C(CC(F)(F)F)N1C[C@H]2[C@@H](c3ccccc31)[C@H](CO)N2C(=O)c1ccncc1,inconclusive: 31.8%
4,Cc1cc(NC(=O)c2ccccc2)n(C)n1,inconclusive: 35.4%
5,COCC#Cc1ccc([C@@H]2[C@@H](CO)N3C(=O)CN(C(=O)C4CC4)C[C@H]23)cc1,inactive: -0.193%
6,O=C(C[C@H]1C=C[C@@H](NC(=O)c2ccccc2)[C@H](CO)O1)Nc1ccc(-c2ccccc2)cc1,inactive: -4.01%
7,C[C@@H]1CN([C@@H](C)CO)C(=O)c2cccc(NC(=O)C3CCOCC3)c2O[C@H]1CN(C)S(=O)(=O)c1ccc(Cl)cc1,inconclusive: 25.9%
8,CNC(=O)C[C@@H]1CC[C@@H]2[C@H](COc3ccc(NC(=O)c4cccc(OC)c4)cc3C(=O)N2C)O1,inconclusive: 59.7%
9,Cc1ccc2nc(N(CCCN(C)C)C(=O)CCc3ccccc3)sc2c1,inconclusive: 21.4%
10,CCCOc1ccc(C(=O)Nc2ccc3c(c2)OCCO3)cc1,inconclusive: 25.7%
11,COc1ccc(Oc2nc(-c3cccnc3)nc3ccccc23)cc1,inconclusive: 29.2%
12,CC(=O)Nc1cccc(-c2csc(C(NC(C)=O)c3ccc(F)c(F)c3)n2)c1 (configuration not stated),inconclusive: 61.8%
13,C[C@H]1CN([C@@H](C)CO)C(=O)c2cc(C#Cc3ccccc3)cnc2O[C@@H]1CN(C)Cc1ccccn1,inconclusive: 31.5%
14,C[C@H]1CN([C@@H](C)CO)C(=O)CCCn2cc(nn2)CO[C@@H]1CN(C)C(=O)c1cc(-c2ccccc2)on1,inconclusive: 48%
15,C[C@H](CO)N1C[C@H](C)[C@@H](CN(C)C(=O)Nc2ccccc2)Oc2c(NC(=O)Nc3cccc4ccccc34)cccc2C1=O,inactive: -0.335%
16,COc1ccc(OC)c(CCNC(=O)CCc2nnc3ccc(N4CCCC4)nn23)c1,inconclusive: 24.8%
17,C[C@@H]1CN([C@@H](C)CO)C(=O)c2cc(NS(=O)(=O)c3cn(C)cn3)ccc2O[C@@H](C)CCCCO[C@@H]1CN(C)CC1CCCCC1,inactive: -2.94%
18,C=CCOc1ccccc1/C=N/NC(=O)Cc1ccccc1,inconclusive: 21.1%
19,C/C=C/c1cnc2c(c1)C(=O)N([C@H](C)CO)C[C@@H](C)[C@@H](CN(C)S(=O)(=O)c1ccc(F)cc1)O2,inconclusive: 60.6%
20,O=C(C[C@H]1C[C@@H]2c3cc(NC(=O)c4ccc5c(c4)OCO5)ccc3O[C@@H]2[C@H](CO)O1)NCCN1CCCCC1,inconclusive: 62.1%
21,COc1ccccc1Nc1nc(-c2sc(NC(=O)C(C)(C)C)nc2C)cs1,inconclusive: 23%
22,CCN(C(=O)C1CCN(c2nc(-c3ccc(OC)cc3)no2)CC1)c1ccc(OC)cc1,inconclusive: 24.5%
23,Cc1ccc(S(=O)(=O)N2C[C@H]3N(C(=O)OC(C)C)N(C(=O)OC(C)C)C[C@H](OC(=O)NCc4ccccc4)[C@@]3(O)C2)cc1,inconclusive: 61.5%
24,Cc1cccnc1C(NC(=O)C1CCN(CCOc2ccc(F)cc2)CC1)c1ccc(Cl)cc1 (configuration not stated),inactive: 0.0335%

# Among those listed so far, these have a Cl atom.
row,SMILES,CPE inhibition
7,C[C@@H]1CN([C@@H](C)CO)C(=O)c2cccc(NC(=O)C3CCOCC3)c2O[C@H]1CN(C)S(=O)(=O)c1ccc(Cl)cc1,inconclusive: 25.9%
24,Cc1cccnc1C(NC(=O)C1CCN(CCOc2ccc(F)cc2)CC1)c1ccc(Cl)cc1 (configuration not stated),inactive: 0.0335%

# Additional entries follow.

row,SMILES,CPE inhibition
1,CO[C@@H]1CN(C)C(=O)c2ccc(NC(=O)Nc3cc(F)ccc3F)cc2OC[C@@H](C)N(C(=O)c2ccccn2)C[C@H]1C,active: 86.5%
2,CC(C)(C)c1ccc(C(=O)CC(Sc2ccc(Cl)cc2)C(=O)O)cc1 (configuration not stated),inactive: -5.57%
3,Cc1ccc(C)c(NC(=O)CN(C)C(=O)c2ccc(COc3ccccc3)cc2)c1,inconclusive: 29.8%
4,O=C(CCc1nc2ccccc2c(=O)[nH]1)N1CCCc2ccccc21,active: 53.5%
5,O=C(NCc1nnc(SCc2ccccc2)n1-c1ccc(F)cc1)C12CC3CC(CC(C3)C1)C2,inactive: -0.34%
6,COc1ccc(NC(=O)N(C)C[C@@H]2Oc3ccc(NS(=O)(=O)c4cn(C)cn4)cc3CC(=O)N([C@@H](C)CO)C[C@H]2C)cc1,inconclusive: 47.6%
7,CC(C)NC(=O)N[C@H]1CC[C@@H](CC(=O)NCCN2CCCC2)O[C@@H]1CO,inconclusive: 45.9%
8,CC(=O)Nc1cccc(Oc2nc(NCC3CC3)nc3ccsc23)c1,inactive: -11.4%
9,Cc1c(Cl)c(=O)oc2cc(OCC(=O)NCc3cccs3)ccc12,inconclusive: 31.4%
10,C[C@H]1CN([C@@H](C)CO)C(=O)c2cc(N(C)C)ccc2O[C@@H]1CN(C)S(=O)(=O)c1cn(C)cn1,inactive: -8.27%
11,CCOC(=O)CN1CC23C=CC(O2)C(C(=O)NCc2ccccc2OC)C3C1=O (configuration not stated),inconclusive: 23.1%
12,C[C@H](O)C#Cc1ccc2c(c1)O[C@@H](CN(C)C(=O)C1CC1)[C@@H](C)CN([C@H](C)CO)S2(=O)=O,inactive: -1.6%
13,C[C@@H]1CN([C@H](C)CO)C(=O)c2cc(NS(=O)(=O)c3cccs3)ccc2O[C@@H](C)CCCCO[C@@H]1CN(C)S(=O)(=O)c1cccs1,inactive: -4.08%
14,COc1cccc(NC(=O)N(C)C[C@@H]2Oc3cc(C#CC4(O)CCCC4)ccc3S(=O)(=O)N([C@H](C)CO)C[C@H]2C)c1,inconclusive: 44.1%
15,C[C@H]1CN([C@@H](C)CO)S(=O)(=O)c2ccc(-c3cccnc3)cc2O[C@H]1CN(C)C(=O)C1CCC1,inactive: -5.11%
16,O=S(=O)(c1ccccc1)N1CCC(O)(CN2CCN(c3ccccc3)CC2)CC1,inconclusive: 42.3%
17,COCCCN1CC(=O)N2C(c3ccccc3)c3[nH]c4ccccc4c3C[C@H]2C1=O (some centres not stated),inactive: 2.39%
18,Cc1ccc(S(=O)(=O)N(C)C[C@@H]2Oc3ccc(NC(=O)NC4CCCCC4)cc3C(=O)N([C@@H](C)CO)C[C@H]2C)cc1,active: 23.4%
19,CCN(CC(=O)Nc1c(F)cccc1F)C(=O)c1cc(S(=O)(=O)NCc2ccccc2)ccc1C,inconclusive: 152%
20,COC(=O)C1=C(C)N(C)C(=NCc2cc(OC)c(OC)c(OC)c2)NC1c1ccc(Cl)cc1 (configuration not stated),inactive: -6.17%
21,Cc1ccc(NC(=S)N(N)CCO)cc1,inconclusive: 28.3%
22,Cc1ccc(C(=O)N2N=C(c3ccc(NS(C)(=O)=O)cc3)CC2c2cccs2)cc1 (configuration not stated),inconclusive: 31.7%
23,C[C@@H]1CCCCO[C@@H](CN(C)C)[C@@H](C)CN([C@H](C)CO)C(=O)c2cc(NC(=O)C3CCCCC3)ccc2O1,inconclusive: 59.8%
24,O=C(c1ccc(F)cc1)N1CCCCN2[C@H](C1)[C@H](c1ccc(C#CC3(O)CCCC3)cc1)[C@@H]2CO,active: 42.5%

row,SMILES,CPE inhibition
1,CCNC(=O)[C@@H]1[C@@H](CO)[C@@H]2Cn3c(ccc(-c4ccccc4)c3=O)[C@@H]2N1CC,inactive: -5.16%
2,C[C@@H]1CN([C@H](C)CO)C(=O)c2cccc(N(C)C)c2O[C@H]1CN(C)Cc1ccccc1,inactive: 0.694%
3,Cc1ccc(C)c(NC(=O)CSc2ccc(-c3ccco3)nn2)c1,inconclusive: 30.3%
4,CCOC(=O)c1ccc(NC(=S)NCc2ccco2)cc1,inconclusive: 21.1%
5,CN(C)CCNC(=O)c1sc2cccc(F)c2c1Cl,inconclusive: 39.8%
6,CCN1CCN(C(=O)C2CC(=O)N(c3ccc(Cl)cc3)C2)CC1 (configuration not stated),active: 61.1%
7,O=C(CN1CCN(S(=O)(=O)c2ccc(Cl)cc2)CC1)NCc1cccs1,inconclusive: 46.2%
8,CCN1/C(=C/c2ccc3cc(C)ccc3[n+]2CC)Sc2cc(C)ccc21,inactive: -5.92%
9,O=C(Nc1cc(C(F)(F)F)ccc1F)C1Cc2c(-c3ccccc3Oc3ccccc3)ccnc2O1 (configuration not stated),inactive: 5.99%
10,CCCOC(=O)c1ccc(O)cc1,active: 26.4%
11,C[C@H]1CCCCO[C@@H](CN(C)C(=O)Nc2ccccc2)[C@@H](C)CN([C@@H](C)CO)C(=O)c2cc(NC(=O)Nc3ccc(C(F)(F)F)cc3)ccc2O1,active: 36.5%
12,C[C@H]1CN([C@@H](C)CO)C(=O)c2cc(NS(=O)(=O)c3cccs3)ccc2O[C@H]1CN(C)S(C)(=O)=O,inconclusive: 21.8%
13,CO/N=C/C(C#N)=C/c1cc(C(=O)c2ccc(F)cc2)cn1C,inconclusive: 21.3%
14,CC1CCCCC1NC(=O)c1cc(Cl)nc2ccccc12 (configuration not stated),inconclusive: 22.3%
15,Nc1nc(SCC(=O)N2CCN(c3ccc(F)cc3)CC2)n[nH]1,active: 40%
16,Cc1cc(C(=O)OCC(=O)NCc2ccccc2)c(C)o1,inconclusive: 23.3%
17,C[C@@H]1CCCCO[C@H](CN(C)Cc2ccc(C(F)(F)F)cc2)[C@H](C)CN([C@H](C)CO)C(=O)c2cc(NS(=O)(=O)c3ccccc3)ccc2O1,inactive: -14.7%
18,CCN1C(=O)CC(c2ccccc2)CC1=O,inconclusive: 30.2%
19,O=C(Nc1ccccc1C(=O)N/N=C/c1ccncc1)c1ccccc1,inactive: 1.26%
20,COc1cccc(OC)c1/C(O)=C(\C#N)c1nc2ccccc2[nH]1,inconclusive: 21.2%
21,COc1ccccc1S(=O)(=O)N(C)C[C@H]1Oc2cc(/C=C/c3ccccc3)ccc2S(=O)(=O)N([C@@H](C)CO)C[C@@H]1C,inconclusive: 3.66%
22,C#CCNC(=O)C[C@H]1C[C@@]2(C(=O)OC)C(=C[C@H](C(C)(C)C)O[C@@H]2C)N(CCC2=CCCCC2)C1=O,inactive: -8.28%
23,CCOC(=O)C(Cc1ccccc1)NC(=O)CCc1nnc2ccc(N3CCCCC3)nn12 (configuration not stated),inconclusive: 36.1%
24,COC[C@H]1CCCN1c1ccc2c(c1)O[C@@H](COCc1ccccc1)CN([C@@H](C)c1ccccc1)S2(=O)=O,inconclusive: 64.2%
